Results taken from patent publication US20240018213A1 (OHIO STATE INNOVATION FOUNDATION, published 2024).
No constants are given. Whether binding was seen depends on the method and setting. Some binding calls cover weakened binding; strength is not graded here.

Amino acid sequences for entries named in this document (tags omitted). Residues count along the entry.
UniProt Q01705, residues 19-1725: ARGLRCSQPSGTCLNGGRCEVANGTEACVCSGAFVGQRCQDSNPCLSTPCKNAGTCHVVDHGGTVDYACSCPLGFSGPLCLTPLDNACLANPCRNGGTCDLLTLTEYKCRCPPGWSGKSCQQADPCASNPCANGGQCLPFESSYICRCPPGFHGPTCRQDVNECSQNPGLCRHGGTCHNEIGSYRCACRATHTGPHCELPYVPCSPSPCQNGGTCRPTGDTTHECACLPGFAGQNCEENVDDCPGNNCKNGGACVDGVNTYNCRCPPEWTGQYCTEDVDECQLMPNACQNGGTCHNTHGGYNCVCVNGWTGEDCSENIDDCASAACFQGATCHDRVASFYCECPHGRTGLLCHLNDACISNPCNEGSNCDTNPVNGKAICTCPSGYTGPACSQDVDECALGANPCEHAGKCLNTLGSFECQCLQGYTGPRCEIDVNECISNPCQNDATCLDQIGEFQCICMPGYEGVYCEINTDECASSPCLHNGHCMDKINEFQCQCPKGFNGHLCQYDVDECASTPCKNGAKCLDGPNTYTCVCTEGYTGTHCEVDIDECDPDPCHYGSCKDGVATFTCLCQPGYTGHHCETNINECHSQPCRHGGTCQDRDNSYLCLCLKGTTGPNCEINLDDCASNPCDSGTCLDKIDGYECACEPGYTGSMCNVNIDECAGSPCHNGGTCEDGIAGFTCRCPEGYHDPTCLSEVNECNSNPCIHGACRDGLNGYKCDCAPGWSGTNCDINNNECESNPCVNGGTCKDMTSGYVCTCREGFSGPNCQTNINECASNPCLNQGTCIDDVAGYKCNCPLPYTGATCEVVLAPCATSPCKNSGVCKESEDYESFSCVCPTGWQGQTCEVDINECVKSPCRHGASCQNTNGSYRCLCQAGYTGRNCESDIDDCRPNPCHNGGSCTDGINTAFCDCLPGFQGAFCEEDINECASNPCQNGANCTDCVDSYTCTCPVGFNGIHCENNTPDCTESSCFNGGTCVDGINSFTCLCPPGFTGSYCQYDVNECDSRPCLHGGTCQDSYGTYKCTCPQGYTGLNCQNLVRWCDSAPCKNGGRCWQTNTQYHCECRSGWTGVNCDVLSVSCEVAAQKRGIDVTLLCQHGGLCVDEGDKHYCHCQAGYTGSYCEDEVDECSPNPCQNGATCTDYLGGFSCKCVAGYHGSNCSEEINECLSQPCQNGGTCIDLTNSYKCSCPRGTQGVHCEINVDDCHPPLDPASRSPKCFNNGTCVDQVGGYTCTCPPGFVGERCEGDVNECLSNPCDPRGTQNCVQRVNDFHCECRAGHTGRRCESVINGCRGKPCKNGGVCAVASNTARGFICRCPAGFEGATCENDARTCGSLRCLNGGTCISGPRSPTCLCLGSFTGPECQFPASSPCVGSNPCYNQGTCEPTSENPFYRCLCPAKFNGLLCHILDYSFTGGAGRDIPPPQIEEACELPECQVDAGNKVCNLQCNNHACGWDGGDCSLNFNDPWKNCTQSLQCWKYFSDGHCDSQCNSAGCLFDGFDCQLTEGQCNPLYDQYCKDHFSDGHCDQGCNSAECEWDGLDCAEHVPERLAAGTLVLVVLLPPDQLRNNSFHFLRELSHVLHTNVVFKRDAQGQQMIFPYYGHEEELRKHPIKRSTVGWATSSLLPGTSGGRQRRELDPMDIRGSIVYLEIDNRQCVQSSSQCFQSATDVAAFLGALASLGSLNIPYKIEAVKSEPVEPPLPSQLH

How the values were obtained:
mNotch1ECD-Fc [1] = biological target: T1, mNotch1ECD-Fc (mouse, UniProt Q01705 19-1725); assay: Open SPR; mouse full length Notch extracellular domain (mNotch1ECD-Fc) immobilized, Tan 6 injected at 2.2, 0.45, 0.22, 0.11 and 0 µM (HBS buffer)
T1 construct: extracellular domain; Immobilized on the SPR chip; also called mouse full length notch extracellular domain; not shown: Fc part

mNotch1ECD-Fc [2] = biological target: T1, mNotch1ECD-Fc; assay: SPR, mNotch1ECD-Fc immobilized

binding (mNotch1ECD-Fc [1]): binds
binding (mNotch1ECD-Fc [2]): binds
B1: MuDLL1.DSL-EGF12.Tan 6 (NL 99) (ligand)
chain: MAAHHHHHHGGENLYFQGFVCDEHYYGEGCSVFCRPRDDAFGHFTCGDRGEKMCDPGWKGQYCTDPICLPGCDDQHGYCDKPGECKCRVGWQGRYCDECIRYPGCLHGTCQQPWQCNCQEGWGGLFCNQGSSGSSGFVCDEHYYGEGCSVFCRPRDDAFGHFTCGDRGEKMCDPGWKGQYCTDPICLPGCDDQHGYCDKPGECKCRVGWQGRYCDECIRYPGCLHGTCQQPWQCNCQEGWGGLFCNQGSSGSSGFVCDEHYYGEGCSVFCRPRDDAFGHFTCGDRGEKMCDPGWKGQYCTDPICLPGCDDQHGYCDKPGECKCRVGWQGRYCDECIRYPGCLHGTCQQPWQCNCQEGWGGLFCNQGSSGSSGFVCDEHYYGEGCSVFCRPRDDAFGHFTCGDRGEKMCDPGWKGQYCTDPICLPGCDDQHGYCDKPGECKCRVGWQGRYCDECIRYPGCLHGTCQQPWQCNCQEGWGGLFCNQGSSGSSGFVCDEHYYGEGCSVFCRPRDDAFGHFTCGDRGEKMCDPGWKGQYCTDPICLPGCDDQHGYCDKPGECKCRVGWQGRYCDECIRYPGCLHGTCQQPWQCNCQEGWGGLFCNQGSSGSSGFVCDEHYYGEGCSVFCRPRDDAFGHFTCGDRGEKMCDPGWKGQYCTDPICLPGCDDQHGYCDKPGECKCRVGWQGRYCDECIRYPGCLHGTCQQPWQCNCQEGWGGLFCNQ
notes: also called DLL1 Tandem 6×; hexamer
